Literature values as cited in US20090182028A1, “Plant Components and Extracts and Uses Thereof” (G.I.M. GESELLSCHAFT-FUR INNOVATIVE MEDIZIN G.M.B.H NFG OHG, priority 2006, published 2009).
Some entries share one result that the patent states for a list of compounds.

System: DNA
Conditions: high concentrations; cited from earlier work

Row | SMILES | concentration with DNA damaging effects
1 | O=C=Nc1ccccc1 [phenylisocyanate] | > 2.5 µM
2 | S=C=NCc1ccccc1 [benzylisothiocyanate] | > 2.5 µM
